Not every detail of the peptide structures is certain; ends, links or a residue may be inferred. Some entries share one result that the patent states for a list of compounds. Ends that are not written are not given here.
Tested on: anesthetized male Sprague-Dawley rats
Experiment: Inotropic effect in vivo in anaesthetized rats (stroke work, heart rate)
Details: i.v. infusion, at a given infusion rate (up to 2.5 nmol/kg/min); 40% set as end point

Molecule | increase in strokework
CC[C@H](C)[C@H](NC(=O)[C@H](Cc1ccccc1)NC(=O)[C@H](CC(=O)O)NC(=O)[C@H](CCCCN)NC(=O)[C@H](C)NC(=O)[C@H](CCCNC(=N)N)NC(=O)[C@H](CCCNC(=N)N)NC(=O)[C@H](CCC(=O)O)NC(=O)[C@H](CC(=O)O)NC(=O)[C@H](CC(C)C)NC(=O)[C@H](Cc1ccc(O)cc1)NC(=O)[C@H](CCCCN)NC(=O)[C@H](CO)NC(=O)[C@H](Cc1ccc(O)cc1)NC(=O)[C@H](CC(=O)O)NC(=O)[C@H](CO)NC(=O)[C@@H](NC(=O)[C@H](Cc1ccccc1)NC(=O)[C@@H](NC(=O)CNC(=O)[C@H](CCC(N)=O)NC(=O)[C@H](CO)NC(=O)[C@@H](N)Cc1c[nH]cn1)[C@@H](C)O)[C@@H](C)O)C(=O)N[C@@H](CCC(=O)O)C(=O)N[C@@H](Cc1c[nH]c2ccccc12)C(=O)N[C@@H](CC(C)C)C(=O)N[C@@H](CC(C)C)C(=O)N[C@@H](CO)C(=O)N[C@@H](C)C(N)=O [Compound 35] | 40%
H-HSQGTFTSDYSKYLDRARADDFVAWLKST-NH2 [Compound 12] | < 40%
HSQGTFTSDYSKYLDRARAEDFVAWLKST [Compound 7] | < 40%
HSQGTFTSDYSKYLDSKAARDFVRWLKLA-NH2 [Compound 37] | 40%

From US20130157953A1, “TREATMENT OF CARDIAC CONDITIONS” (Zealand Pharma A/S, priority 2010, published 2013)
